In paper doi:10.1101/2022.11.21.517367:
Results are given in words; binding and its absence hold for the method and conditions named. In cells and extracts the contact can be indirect. A result given as binding can be weak or reduced; the word gives no strength.

Amino acid sequences for entries named in this document (tags omitted). A change or cut given only in a name is not applied to a line headed by its entry.
UniProt P06136: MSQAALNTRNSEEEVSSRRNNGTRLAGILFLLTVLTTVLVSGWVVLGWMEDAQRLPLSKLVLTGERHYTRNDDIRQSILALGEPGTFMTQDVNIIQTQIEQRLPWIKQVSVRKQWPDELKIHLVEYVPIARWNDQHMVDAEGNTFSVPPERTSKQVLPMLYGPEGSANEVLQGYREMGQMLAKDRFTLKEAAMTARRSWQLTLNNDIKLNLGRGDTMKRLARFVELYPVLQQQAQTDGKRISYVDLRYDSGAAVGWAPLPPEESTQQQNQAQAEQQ

Biological target: T1, E. coli TwinStrep-FtsK 1-222 (E. coli) (UniProt P46889)
T1 sequence: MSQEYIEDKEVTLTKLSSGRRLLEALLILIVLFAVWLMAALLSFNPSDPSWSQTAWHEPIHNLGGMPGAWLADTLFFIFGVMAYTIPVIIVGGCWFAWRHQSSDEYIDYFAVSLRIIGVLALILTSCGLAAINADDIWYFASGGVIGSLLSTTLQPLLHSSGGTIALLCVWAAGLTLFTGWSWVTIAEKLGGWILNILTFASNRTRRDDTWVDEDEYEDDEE
Assay: co-purification

Q: Which binding does the source give for E. coli FtsQ-His6 (from UniProt P06136) here?
A: binds
